Measured values taken from paper PMC8797470, “Disruption of the pentraxin 3/CD44 interaction as an efficient therapy for triple‐negative breast cancers” (Clinical and Translational Medicine, 2022).

Sequences of proteins named here, by UniProt entry; tags and fusion partners are left off. A change or cut given only in a name is not applied to a line headed by its entry.
UniProt P16070: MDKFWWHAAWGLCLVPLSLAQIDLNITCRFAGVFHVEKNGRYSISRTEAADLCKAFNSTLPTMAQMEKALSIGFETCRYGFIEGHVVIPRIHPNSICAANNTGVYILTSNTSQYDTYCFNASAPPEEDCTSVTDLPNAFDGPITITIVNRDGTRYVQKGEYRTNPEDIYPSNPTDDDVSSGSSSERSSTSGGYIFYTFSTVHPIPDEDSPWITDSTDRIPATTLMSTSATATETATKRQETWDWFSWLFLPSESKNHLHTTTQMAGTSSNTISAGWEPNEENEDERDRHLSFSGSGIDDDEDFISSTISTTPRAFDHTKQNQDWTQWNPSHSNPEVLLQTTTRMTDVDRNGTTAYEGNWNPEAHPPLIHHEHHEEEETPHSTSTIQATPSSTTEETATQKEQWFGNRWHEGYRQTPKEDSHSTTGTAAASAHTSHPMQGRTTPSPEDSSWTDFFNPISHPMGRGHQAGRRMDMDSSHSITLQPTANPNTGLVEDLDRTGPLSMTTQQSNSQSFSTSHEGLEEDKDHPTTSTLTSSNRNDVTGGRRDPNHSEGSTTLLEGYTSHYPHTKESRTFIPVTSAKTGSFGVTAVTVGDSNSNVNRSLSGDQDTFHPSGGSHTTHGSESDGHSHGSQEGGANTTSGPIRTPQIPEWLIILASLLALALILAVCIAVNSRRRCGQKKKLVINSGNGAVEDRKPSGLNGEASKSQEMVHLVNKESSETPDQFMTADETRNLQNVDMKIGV
UniProt P26022: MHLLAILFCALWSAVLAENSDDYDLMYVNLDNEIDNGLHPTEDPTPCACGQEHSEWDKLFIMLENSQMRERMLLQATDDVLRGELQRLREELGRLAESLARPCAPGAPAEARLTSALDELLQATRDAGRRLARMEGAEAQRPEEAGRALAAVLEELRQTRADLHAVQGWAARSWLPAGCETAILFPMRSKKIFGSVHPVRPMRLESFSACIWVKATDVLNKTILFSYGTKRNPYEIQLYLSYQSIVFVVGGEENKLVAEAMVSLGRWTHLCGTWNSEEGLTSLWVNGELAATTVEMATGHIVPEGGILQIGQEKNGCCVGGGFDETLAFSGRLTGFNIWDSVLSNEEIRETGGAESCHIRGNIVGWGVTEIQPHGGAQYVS

Assays:
[1] = target: CD44 (12211-H08H; Sino Biological Inc.) (UniProt P16070); assay: ELISA; wells coated with 10 μg/ml CD44 in PBS pH 7.2, blocked with 3% milk; HRP-conjugated recombinant PTX3, PTX3/N, PTX3/C or PTX3NA 2 h; TMB, OD 450 nm; both purified
[2] = target: CD44 (12211-H08H; Sino Biological Inc.) (UniProt P16070); assay: ELISA; wells coated with 10 μg/ml CD44; biotinylated PTX3-derived peptides (AD9, GR9, P2rdAD9, P12rdGR9 and other truncated peptides) 2 h; OD 450 nm; both purified
[3] = target: CD44 (12211-H08H; Sino Biological Inc.) (UniProt P16070); assay: ELISA; competition: wells coated with CD44; biotinylated peptides RI37 or GI40 at the indicated concentrations 2 h, washed, then 5 μg/ml HRP-conjugated PTX3 1 h at RT; TMB, OD 450 nm; both purified
[4] = target: CD44 (12211-H08H; Sino Biological Inc.) (UniProt P16070); assay: ELISA; competition: Ab-10 or Ab-49 pre-incubated with 5 μg/ml HRP-conjugated PTX3 in PBS 2 h at RT, mixture on CD44-coated wells 1 h at RT; TMB, OD 450 nm; both purified

Row | Substance | binding [1] | binding [3] | also measured
1 | recombinant PTX3 Asn220 mutant (PTX3NA), HRP-conjugated (from UniProt P26022) (ligand) | binds |  | 
2 | peptide GR9 (PTX3 amino acids 352–360), biotinylated (from UniProt P26022 352-360) |  |  | binding [2]: binds
3 | peptide GI40 (PTX3 amino acids 320–359), biotinylated (from UniProt P26022 320-359) |  | binds | 
4 | N-terminus of PTX3 (PTX3/N, amino acids 19–182), HRP-conjugated (from UniProt P26022 19-182) (domain or fragment) | no binding |  | 
5 | horseradish peroxidase (HRP)-conjugated recombinant PTX3 (from UniProt P26022 18-381) (ligand) | binds | binds | binding [4]: binds
6 | peptide AD9 (PTX3 amino acids 209–217), biotinylated (from UniProt P26022 209-217) |  |  | binding [2]: binds
7 | peptide RI37 (PTX3 amino acids 200–236), biotinylated (from UniProt P26022 200-236) |  | binds | 
8 | C-terminus of PTX3 (PTX3/C, amino acids 180–381), HRP-conjugated (from UniProt P26022 180-381) (domain or fragment) | binds |  | 

No constants are given. Whether binding was seen depends on the method and setting. A result given as binding can be weak or reduced; the word gives no strength.
